Experimental data published in PubChem BioAssay AID328 (DTP/NCI, 2004).
The list shows only some results of the screen, not a fair sample: it covers a few groups of compounds. Not every dose and run of a compound is shown. T/C: endpoint of the treated group in % of that of the vehicle group. For survival time, this PubChem deposit counts one and a half times the control or more as active, and values a quarter to a half above the control carry no call in these data; other NCI protocols may use other cut-offs. Some entries show no survivor count and are marked so; the dose need not have been tolerated. Schedule codes are those of the source, read here as Q, the interval in days (D) or hours (H), X, the number of doses. Some doses were run more than once; the values are given in rising order.

Test system: BDF1 mice, P388 leukemia ip, median survival T/C
Assay: NCI In Vivo Anticancer Drug Screen. Data for tumor model P388 Leukemia (intraperitoneal) in B6D2F1 (BDF1) mice
Settings: T/C endpoint: median survival time, higher T/C = longer survival
Summary of the method: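 Mice carrying the transplantable tumour receive compound or vehicle. Survival is followed in each arm, and the treated measure is divided by the vehicle measure.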

[1] = dose: 25.0 mg/kg/injection, schedule: Q01DX009 (ip), vehicle: Klucel (hydroxypropylcellulose) (HPC)
[2] = dose: 50.0 mg/kg/injection, schedule: Q04DX003 (ip), vehicle: Klucel (hydroxypropylcellulose) (HPC)
[3] = dose: 12.5 mg/kg/injection, schedule: Q04DX003 (ip), vehicle: Klucel (hydroxypropylcellulose) (HPC)
[4] = dose: 25.0 mg/kg/injection, schedule: Q04DX003 (ip), vehicle: Klucel (hydroxypropylcellulose) (HPC)

O=C(O)CCOc1cccc(N(CCCl)CCCl)c1
T/C (dose: 4.8 mg/kg/injection, schedule: Q01DX009 (ip), vehicle: Klucel (hydroxypropylcellulose) (HPC)): 86 % of control [survivor count not shown]
T/C (dose: 7.2 mg/kg/injection, schedule: Q01DX009 (ip), vehicle: Klucel (hydroxypropylcellulose) (HPC)): 100 % of control [survivor count not shown]
T/C (dose: 11.0 mg/kg/injection, schedule: Q01DX009 (ip), vehicle: Klucel (hydroxypropylcellulose) (HPC)): 144 % of control [survivor count not shown]
T/C (dose: 11.0 mg/kg/injection, schedule: Q04DX003 (ip), vehicle: Klucel (hydroxypropylcellulose) (HPC)): 116 % of control [survivor count not shown]
T/C (dose: 16.0 mg/kg/injection, schedule: Q01DX009 (ip), vehicle: Klucel (hydroxypropylcellulose) (HPC)): 200 % of control [survivor count not shown]
T/C (dose: 16.0 mg/kg/injection, schedule: Q04DX003 (ip), vehicle: Klucel (hydroxypropylcellulose) (HPC)): 91 % of control [survivor count not shown]
T/C [1]: 190 % of control [survivor count not shown]
T/C (dose: 33.0 mg/kg/injection, schedule: Q04DX003 (ip), vehicle: Klucel (hydroxypropylcellulose) (HPC)): 140 [survivor count not shown] and 185 % of control [survivor count not shown]
T/C (dose: 50.0 mg/kg/injection, schedule: Q01DX009 (ip), vehicle: Klucel (hydroxypropylcellulose) (HPC)): 230 % of control [survivor count not shown]
T/C [2]: 150 [survivor count not shown] and 220 % of control [survivor count not shown]
T/C (dose: 75.0 mg/kg/injection, schedule: Q04DX003 (ip), vehicle: Klucel (hydroxypropylcellulose) (HPC)): 90 [survivor count not shown] and 240 % of control [survivor count not shown]

O=CCCCc1ccc(N(CCCl)CCCl)cc1
T/C (dose: 0.74 mg/kg/injection, schedule: Q12HX018 (ip), vehicle: Klucel (hydroxypropylcellulose) (HPC)): 105 % of control [survivor count not shown]
T/C (dose: 1.1 mg/kg/injection, schedule: Q12HX018 (ip), vehicle: Klucel (hydroxypropylcellulose) (HPC)): 115 % of control [survivor count not shown]
T/C (dose: 1.7 mg/kg/injection, schedule: Q12HX018 (ip), vehicle: Klucel (hydroxypropylcellulose) (HPC)): 127 % of control [survivor count not shown]
T/C (dose: 2.5 mg/kg/injection, schedule: Q12HX018 (ip), vehicle: Klucel (hydroxypropylcellulose) (HPC)): 113 % of control [survivor count not shown]
T/C (dose: 3.9 mg/kg/injection, schedule: Q12HX018 (ip), vehicle: Klucel (hydroxypropylcellulose) (HPC)): 183 % of control [survivor count not shown]
T/C (dose: 6.0 mg/kg/injection, schedule: Q12HX018 (ip), vehicle: Klucel (hydroxypropylcellulose) (HPC)): 177 % of control [survivor count not shown]
T/C (dose: 9.0 mg/kg/injection, schedule: Q12HX018 (ip), vehicle: Klucel (hydroxypropylcellulose) (HPC)): 233 % of control [survivor count not shown]

O=C(O)CCCCc1ccc(N(CCCl)CCCl)cc1
T/C (dose: 1.56 mg/kg/injection, schedule: Q01DX009 (ip), vehicle: Klucel (hydroxypropylcellulose) (HPC)): 116 % of control [survivor count not shown]
T/C (dose: 2.0 mg/kg/injection, schedule: Q04DX003 (ip), vehicle: saline with Tween-80): 105 % of control [survivor count not shown]
T/C (dose: 3.13 mg/kg/injection, schedule: Q01DX009 (ip), vehicle: Klucel (hydroxypropylcellulose) (HPC)): 127 % of control [survivor count not shown]
T/C (dose: 4.0 mg/kg/injection, schedule: Q04DX003 (ip), vehicle: saline with Tween-80): 110 % of control [survivor count not shown]
T/C (dose: 6.25 mg/kg/injection, schedule: Q01DX009 (ip), vehicle: Klucel (hydroxypropylcellulose) (HPC)): 133 % of control [survivor count not shown]
T/C (dose: 6.25 mg/kg/injection, schedule: Q04DX003 (ip), vehicle: saline with Tween-80): 104 % of control [survivor count not shown]
T/C (dose: 8.0 mg/kg/injection, schedule: Q04DX003 (ip), vehicle: saline with Tween-80): 120 % of control [survivor count not shown]
T/C (dose: 12.5 mg/kg/injection, schedule: Q01DX009 (ip), vehicle: Klucel (hydroxypropylcellulose) (HPC)): 159 % of control [survivor count not shown]
T/C [3]: 113 % of control [survivor count not shown]
T/C (dose: 12.5 mg/kg/injection, schedule: Q04DX003 (ip), vehicle: saline with Tween-80): 127 % of control [survivor count not shown]
T/C (dose: 16.5 mg/kg/injection, schedule: Q04DX003 (ip), vehicle: saline with Tween-80): 113 % of control [survivor count not shown]
T/C [1]: 186 % of control [survivor count not shown]
T/C [4]: 147 % of control [survivor count not shown]
T/C (dose: 25.0 mg/kg/injection, schedule: Q04DX003 (ip), vehicle: saline with Tween-80): 130 [survivor count not shown] and 145 % of control [survivor count not shown]
T/C (dose: 37.5 mg/kg/injection, schedule: Q04DX003 (ip), vehicle: saline with Tween-80): 152 % of control [survivor count not shown]

ClCCN(CCCl)c1ccccc1
T/C (dose: 6.25 mg/kg/injection, schedule: Q04DX003 (ip), vehicle: Klucel (hydroxypropylcellulose) (HPC)): 140 % of control [survivor count not shown]
T/C (dose: 12.5 mg/kg/injection, schedule: Q01DX009 (ip), vehicle: saline with Tween-80): 168 % of control [survivor count not shown]
T/C [3]: 135 % of control [survivor count not shown]
T/C (dose: 16.0 mg/kg/injection, schedule: Q01DX010 (ip), vehicle: saline): 91 % of control [survivor count not shown]
T/C (dose: 25.0 mg/kg/injection, schedule: Q01DX009 (ip), vehicle: saline with Tween-80): 168 % of control [survivor count not shown]
T/C [4]: 140 % of control [survivor count not shown]
T/C (dose: 32.0 mg/kg/injection, schedule: Q01DX010 (ip), vehicle: saline): 100 % of control [survivor count not shown]
T/C [2]: 210 % of control [survivor count not shown]
T/C (dose: 64.0 mg/kg/injection, schedule: Q01DX010 (ip), vehicle: saline): 108 % of control [survivor count not shown]
T/C (dose: 100.0 mg/kg/injection, schedule: Q04DX003 (ip), vehicle: Klucel (hydroxypropylcellulose) (HPC)): 180 % of control [survivor count not shown]

ClCCNCCCl
T/C (dose: 18.8 mg/kg/injection, schedule: Q01DX010 (ip), vehicle: saline): 104 [survivor count not shown] and 150 % of control [survivor count not shown]
T/C (dose: 37.5 mg/kg/injection, schedule: Q01DX010 (ip), vehicle: saline): 186 [survivor count not shown] and 210 % of control [survivor count not shown]

O=Nc1ccc(N(CCCl)CCCl)cc1
T/C (dose: 5.2 mg/kg/injection, schedule: Q04DX003 (ip), vehicle: Klucel (hydroxypropylcellulose) (HPC)): 165 % of control [survivor count not shown]
T/C (dose: 5.2 mg/kg/injection, schedule: Q04DX003 (ip), vehicle: saline): 128 % of control [survivor count not shown]
T/C (dose: 8.0 mg/kg/injection, schedule: Q04DX003 (ip), vehicle: Klucel (hydroxypropylcellulose) (HPC)): 145 % of control [survivor count not shown]
T/C (dose: 8.0 mg/kg/injection, schedule: Q04DX003 (ip), vehicle: saline): 133 % of control [survivor count not shown]
T/C (dose: 12.0 mg/kg/injection, schedule: Q04DX003 (ip), vehicle: Klucel (hydroxypropylcellulose) (HPC)): 175 % of control [survivor count not shown]
T/C (dose: 12.0 mg/kg/injection, schedule: Q04DX003 (ip), vehicle: saline): 180 % of control [survivor count not shown]
T/C (dose: 17.0 mg/kg/injection, schedule: Q04DX003 (ip), vehicle: alcohol): 186 % of control [survivor count not shown]
T/C (dose: 27.0 mg/kg/injection, schedule: Q04DX003 (ip), vehicle: alcohol): 186 % of control [survivor count not shown]
T/C (dose: 40.0 mg/kg/injection, schedule: Q04DX003 (ip), vehicle: alcohol): 204 % of control [survivor count not shown]

NC1CCCCC1.O=P(O)(NC1CCCCC1)N(CCCl)CCCl
T/C (dose: 100.0 mg/kg/injection, schedule: Q04DX003 (ip), vehicle: saline with Tween-80): 95 % of control [survivor count not shown]
T/C (dose: 200.0 mg/kg/injection, schedule: Q04DX003 (ip), vehicle: saline with Tween-80): 100 % of control [survivor count not shown]
